According to PubChem BioAssay AID2685 (National Center for Advancing Translational Sciences (NCATS), 2010):
Some of the results follow. The main result of the screen is listed elsewhere. These columns were measured beside it and carry no call. Most of these compounds were active or inconclusive in the main read-out, so they are no random draw. Words in brackets tell the shape of the fitted curve; partial curves, single points and poor fits give uncertain potencies.

Assay: qHTS Assay for Lipid Storage Modulators in Drosophila S3 Cells;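 for cell number change: cells counted by Cell Tracker Red CMTPX staining in the red channel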
Settings: BODIPY lipid droplet fluorescence, 18-24 h; for cell number change: measured here: cell count max response, cells fed with added oleic acid
Method in brief: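 Laser-scanning cytometry quantifies lipid droplet accumulation (500–530 nm total intensity; droplet/cell object ratio) in oleic acid-fed (400 uM added) Drosophila S3 cells treated with a concentration series. 20 uM Triacsin C defined 100% inhibition.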

[1] = measured here: cell number channel AC50, cells fed with added oleic acid
[2] = measured here: lipid fluorescence (Fed channel) AC50, cells fed with added oleic acid

SMILES | cell number change [%] | AC50 [1] | AC50 [2]
CCC(C)c1c(O)nc(SCc2ccccc2)[nH]c1=O (stereo not drawn) | 3.59 | 0.291 µM [falling, full curve, poor fit] | 0.0058 µM [falling, full curve, poor fit]
COc1ccc(C(=O)N(C)C2CCCN(Cc3ccccc3F)C2)cc1OC (stereo not drawn) | 48.3 | 16.4 µM [rising, partial curve, poor fit] | –
Cc1cccc(N2CCN(C(=O)Cc3ccc(-n4c(=O)[nH]c5ccsc5c4=O)cc3)CC2C)c1 (stereo not drawn) | 88 | 16.4 µM [rising, partial curve, poor fit] | 16.4 µM [rising, partial curve]
O=C(CCN1CCN(CCO)CC1)Nc1ccc(C2CCCC2)cc1 | 23.3 | – | 23.1 µM [rising, partial curve, poor fit]
COc1cccc(COC(=O)c2ccc3c(c2)NC(=O)C(C)S3)c1OC (stereo not drawn) | – | – | 6.51 µM [falling, single point]
CCOC(=O)C1CCCN(Cc2cc(OC)c(O)c(OC)c2)C1 (stereo not drawn) | -95.4 | 23.1 µM [falling, partial curve] | 2.91 µM [falling, full curve]
CCn1c(SCC(=O)Nc2ccccc2OC)nnc1-c1cnccn1 | 7.78 | – | 1.03 µM [rising, partial curve]
CCN(CC)c1ccc(NC(=S)NC(=O)c2cccs2)cc1 | -25.5 | – | 16.4 µM [falling, single point]
CC1(c2ccc3ccccc3c2)NC(=O)N(CC(=O)NCc2cccs2)C1=O (stereo not drawn) | 6.41 | – | 29.1 µM [rising, single point]
Cc1ccc(S(=O)(=O)N2CCC(NC(=O)C3CCCCC3)CC2)cc1 | 3.48 | – | 6.51 µM [rising, single point]
Cc1ccc(S(N)(=O)=O)cc1 | 11.6 | – | 29.1 µM [rising, single point]
CC(C)(C)c1ccc(OCC(=O)NCc2ccco2)cc1 | -45.9 | 32.6 µM [falling, single point] | 0.00461 µM [falling, full curve, poor fit]
CC(=O)c1ccc(N2CCN(C(=O)c3ccc4ccccc4n3)CC2)cc1 | 3.53 | – | –
COc1ccccc1CNC(=O)CN(C)S(=O)(=O)c1ccc(F)cc1 | -12.4 | – | –
Cc1[nH]c2ccccc2c1/C=C/C(=O)c1ccccc1 | 8.24 | – | 18.4 µM [falling, single point]
CCOC(=O)N1CCN(Cc2nc3cc([N+](=O)[O-])ccc3n2CC)CC1 | 24.8 | – | –
CCOc1ccc(S(=O)(=O)N/N=C(\C)Cc2ccc(OC)cc2)cc1 | 70.4 | 2.31 µM [rising, full curve] | –
Cc1noc(C)c1COc1ccccc1C(=O)N(C)Cc1ccc(C(C)(C)C)cc1 | -6.86 | – | 8.2 µM [falling, partial curve]
O=C1CN(C(=O)CSc2nnnn2C2CC2)c2ccccc2N1 | 34 | 0.0651 µM [rising, full curve, poor fit] | –
CC(=O)c1cccc(N/C=C\C(=O)c2ccc(C)cc2)c1 | 45.1 | 29.1 µM [rising, single point] | –

SMILES | cell number change [%] | AC50 [1] | AC50 [2]
Cc1cc(N2CCN(C(=O)c3ccco3)CC2)n2nc(-c3cccc(F)c3)cc2n1 | -47.7 | 32.6 µM [falling, single point] | –
COc1ccc(C(=O)N/N=C2/SCC(=O)N2Cc2ccc3c(c2)OCO3)cc1OC | -22.4 | – | 5.17 µM [falling, full curve, poor fit]
CCOC(=O)N1CCN(CCC(=O)c2ccc(OC)cc2)CC1 | -64.4 | 18.4 µM [falling, single point] | 16.4 µM [falling, single point]
CCc1noc(C)c1C(=O)Nc1nc(-c2ccc(Cl)cc2Cl)cs1 | 25 | 4.61 µM [falling, single point] | 6.51 µM [falling, single point]
CCC(=O)N1CCN(c2ccccc2NC(=O)COc2ccccc2Cl)CC1 | – | 1.64 µM [rising, partial curve] | 2.31 µM [rising, partial curve]
COc1ccc(N2Cc3ccccc3C2=NC(=O)c2cncc(Br)c2)cc1 | 39.1 | 25.9 µM [rising, single point] | –
COc1ccc(C2C=C(c3ccccc3)Nc3nnnn32)cc1 (stereo not drawn) | – | 6.51 µM [rising, single point] | –
CCCc1nc2ccccc2c(C(=O)OCC(=O)NCc2ccc3c(c2)OCO3)c1CC | -56 | 29.1 µM [falling, partial curve, poor fit] | 0.206 µM [falling, full curve, poor fit]
CCc1ccc(Nc2nc(C)cc(C)n2)cc1 | -6.04 | – | –
CCCCCCCCCCOC(=O)Cn1c(COc2ccccc2C)[n+](C)c2ccccc21 | -41.2 | 7.31 µM [falling, partial curve] | 2.59 µM [falling, full curve]
Cc1ccc(S(=O)(=O)n2c(CN3CCCC(C)C3)nc3ccccc32)cc1 (stereo not drawn) | – | 6.51 µM [rising, partial curve, poor fit] | –
Cc1nn(Cc2ccc(Cl)cc2Cl)c(Cl)c1/C=C/C(=O)OCC(=O)NCC(F)(F)F | – | – | 0.146 µM [rising, full curve, poor fit]
CCOc1ccc(N(CC(=O)NCc2ccccc2)S(=O)(=O)c2ccc(C)cc2)cc1 | -29.4 | – | –
CCn1c(C)c(C)c2cc(C(=O)N3CCN(c4ccccc4)CC3)ccc21 | – | 3.26 µM [rising, single point] | –
C=CCn1c(SCC(=O)Nc2cc(C)on2)nc2sc(CC)cc2c1=O | 19.9 | – | 5.17 µM [rising, partial curve]
COc1ccccc1C(=O)Nc1ccc2c(c1)nc(CCNC(=O)c1ccco1)n2C | 57.1 | – | –
Cc1ccc(N(C(=O)c2csnn2)C(C(=O)NC2CCCCC2)c2ccccn2)cc1C (stereo not drawn) | 25.2 | – | 29.1 µM [rising, partial curve, poor fit]
CC(=O)Oc1ccc(-c2ccc(C(=O)NCCc3ccc(S(N)(=O)=O)cc3)cc2)cc1 | 191 | 18.4 µM [rising, partial curve] | –
COc1ccccc1NC(=S)N(Cc1ccco1)Cc1cc2cccc(C)c2[nH]c1=O | 8.6 | – | 0.206 µM [rising, full curve, poor fit]
Cc1cc(C)n2nc(C(=O)N/N=C/c3ccc(Cl)cc3)nc2n1 | -13.2 | – | –

SMILES | cell number change [%] | AC50 [1] | AC50 [2]
CN(C)CCN(Cc1ccccc1)S(=O)(=O)c1csc(C(N)=O)c1 | 52.3 | 29.1 µM [rising, single point] | 29.1 µM [falling, single point]
CCc1cc(=O)oc2cc3oc(C)c(C)c3cc12 | 9.52 | – | 25.9 µM [rising, single point]
Cn1cc(C(N)=O)c2ccccc21 | -12 | 0.092 µM [falling, full curve, poor fit] | 0.0517 µM [falling, full curve, poor fit]
Cc1cc(C(F)(F)F)nn1CC(=O)N1CCOCC1 | -21.1 | – | 29.1 µM [falling, single point]
Cc1ccc(-c2nnc(NC(=O)c3ccc([N+](=O)[O-])o3)o2)c(C)c1 | 71.1 | 16.4 µM [rising, partial curve] | –
CCCCNC(=S)NNC(=O)c1csc(C)c1C | 4.97 | – | 6.51 µM [rising, single point]
CC1(C(=O)NC2CCCCCCC2)CCC(=O)N1Cc1cccnc1 (stereo not drawn) | – | – | 0.00517 µM [falling, full curve, poor fit]
CCN1CCc2c(sc(NC(=O)c3ccc(S(=O)(=O)N4CC(C)OC(C)C4)cc3)c2C(N)=O)C1 (stereo not drawn) | -21.1 | – | –
COc1ccc(OC)c(C2=NOC(C(=O)NCc3ccccn3)C2)c1 (stereo not drawn) | -2.83 | – | 4.61 µM [rising, partial curve, poor fit]
CC1(C)CC(=O)C=C(Nc2ccc(OCC(F)(F)C(F)F)cc2)C1 | – | 2.91 µM [rising, partial curve] | –
CCN(CC)C(=O)C1CCCN(c2ccc([N+](=O)[O-])cc2/C=N/NC(=O)c2ccc([N+](=O)[O-])cc2)C1 (stereo not drawn) | 6.03 | – | 2.91 µM [rising, partial curve]
Cc1ccc(S(=O)(=O)N2CCOCC2)cc1C(=O)Nc1ccc(N2CCCCCC2)cc1 | -44.8 | 9.2 µM [falling, partial curve] | 16.4 µM [falling, partial curve]
CC(C)(C)CC(=O)Nc1nnc(CCc2ccccc2)s1 | 9.46 | – | 23.1 µM [rising, single point]
COc1cc2c(=O)n(Cc3ccco3)c(=O)n(CC(=O)c3ccc(Br)cc3)c2cc1OC | – | 2.06 µM [rising, partial curve] | –
CC1CCN(S(=O)(=O)c2ccc3ncn(CC(=O)N4CCN(C)CC4)c(=O)c3c2)CC1 | -12.9 | – | –
Cc1noc(C)c1C(=O)OCC(=O)c1cc(C)n(Cc2ccccc2Cl)c1C | -15.2 | – | 0.13 µM [rising, full curve, poor fit]
O=C(Nc1nc2ccc(F)cc2s1)c1cccc(S(=O)(=O)N2CCc3ccccc32)c1 | 13 | 2.31 µM [rising, partial curve] | 2.31 µM [rising, full curve]
Cc1ccc(S(=O)(=O)N2CC(O)C[C@H]2C(=O)OCC(=O)Nc2ccc(N3CCOCC3)cc2)cc1C (stereo partly drawn) | 12.4 | – | –
COC(=O)c1ncccc1SC | 71.7 | 29.1 µM [rising, single point] | 29.1 µM [rising, single point]

Random excerpt: 5 records from the list.
SMILES | cell number change [%] | AC50 [1] | AC50 [2]
COC(=O)c1ncccc1SC | 71.7 | 29.1 µM [rising, single point] | 29.1 µM [rising, single point]
CCN1CCc2c(sc(NC(=O)c3ccc(S(=O)(=O)N4CC(C)OC(C)C4)cc3)c2C(N)=O)C1 (stereo not drawn) | -21.1 | – | –
Cn1cc(C(N)=O)c2ccccc21 | -12 | 0.092 µM [falling, full curve, poor fit] | 0.0517 µM [falling, full curve, poor fit]
Cc1ccc(S(=O)(=O)N2CC(O)C[C@H]2C(=O)OCC(=O)Nc2ccc(N3CCOCC3)cc2)cc1C (stereo partly drawn) | 12.4 | – | –
CC1(C)CC(=O)C=C(Nc2ccc(OCC(F)(F)C(F)F)cc2)C1 | – | 2.91 µM [rising, partial curve] | –
